Experimental data taken from publication PMC7493855.

Sequences of proteins named here, by UniProt entry; tags and fusion partners are left off.
UniProt Q3URK3: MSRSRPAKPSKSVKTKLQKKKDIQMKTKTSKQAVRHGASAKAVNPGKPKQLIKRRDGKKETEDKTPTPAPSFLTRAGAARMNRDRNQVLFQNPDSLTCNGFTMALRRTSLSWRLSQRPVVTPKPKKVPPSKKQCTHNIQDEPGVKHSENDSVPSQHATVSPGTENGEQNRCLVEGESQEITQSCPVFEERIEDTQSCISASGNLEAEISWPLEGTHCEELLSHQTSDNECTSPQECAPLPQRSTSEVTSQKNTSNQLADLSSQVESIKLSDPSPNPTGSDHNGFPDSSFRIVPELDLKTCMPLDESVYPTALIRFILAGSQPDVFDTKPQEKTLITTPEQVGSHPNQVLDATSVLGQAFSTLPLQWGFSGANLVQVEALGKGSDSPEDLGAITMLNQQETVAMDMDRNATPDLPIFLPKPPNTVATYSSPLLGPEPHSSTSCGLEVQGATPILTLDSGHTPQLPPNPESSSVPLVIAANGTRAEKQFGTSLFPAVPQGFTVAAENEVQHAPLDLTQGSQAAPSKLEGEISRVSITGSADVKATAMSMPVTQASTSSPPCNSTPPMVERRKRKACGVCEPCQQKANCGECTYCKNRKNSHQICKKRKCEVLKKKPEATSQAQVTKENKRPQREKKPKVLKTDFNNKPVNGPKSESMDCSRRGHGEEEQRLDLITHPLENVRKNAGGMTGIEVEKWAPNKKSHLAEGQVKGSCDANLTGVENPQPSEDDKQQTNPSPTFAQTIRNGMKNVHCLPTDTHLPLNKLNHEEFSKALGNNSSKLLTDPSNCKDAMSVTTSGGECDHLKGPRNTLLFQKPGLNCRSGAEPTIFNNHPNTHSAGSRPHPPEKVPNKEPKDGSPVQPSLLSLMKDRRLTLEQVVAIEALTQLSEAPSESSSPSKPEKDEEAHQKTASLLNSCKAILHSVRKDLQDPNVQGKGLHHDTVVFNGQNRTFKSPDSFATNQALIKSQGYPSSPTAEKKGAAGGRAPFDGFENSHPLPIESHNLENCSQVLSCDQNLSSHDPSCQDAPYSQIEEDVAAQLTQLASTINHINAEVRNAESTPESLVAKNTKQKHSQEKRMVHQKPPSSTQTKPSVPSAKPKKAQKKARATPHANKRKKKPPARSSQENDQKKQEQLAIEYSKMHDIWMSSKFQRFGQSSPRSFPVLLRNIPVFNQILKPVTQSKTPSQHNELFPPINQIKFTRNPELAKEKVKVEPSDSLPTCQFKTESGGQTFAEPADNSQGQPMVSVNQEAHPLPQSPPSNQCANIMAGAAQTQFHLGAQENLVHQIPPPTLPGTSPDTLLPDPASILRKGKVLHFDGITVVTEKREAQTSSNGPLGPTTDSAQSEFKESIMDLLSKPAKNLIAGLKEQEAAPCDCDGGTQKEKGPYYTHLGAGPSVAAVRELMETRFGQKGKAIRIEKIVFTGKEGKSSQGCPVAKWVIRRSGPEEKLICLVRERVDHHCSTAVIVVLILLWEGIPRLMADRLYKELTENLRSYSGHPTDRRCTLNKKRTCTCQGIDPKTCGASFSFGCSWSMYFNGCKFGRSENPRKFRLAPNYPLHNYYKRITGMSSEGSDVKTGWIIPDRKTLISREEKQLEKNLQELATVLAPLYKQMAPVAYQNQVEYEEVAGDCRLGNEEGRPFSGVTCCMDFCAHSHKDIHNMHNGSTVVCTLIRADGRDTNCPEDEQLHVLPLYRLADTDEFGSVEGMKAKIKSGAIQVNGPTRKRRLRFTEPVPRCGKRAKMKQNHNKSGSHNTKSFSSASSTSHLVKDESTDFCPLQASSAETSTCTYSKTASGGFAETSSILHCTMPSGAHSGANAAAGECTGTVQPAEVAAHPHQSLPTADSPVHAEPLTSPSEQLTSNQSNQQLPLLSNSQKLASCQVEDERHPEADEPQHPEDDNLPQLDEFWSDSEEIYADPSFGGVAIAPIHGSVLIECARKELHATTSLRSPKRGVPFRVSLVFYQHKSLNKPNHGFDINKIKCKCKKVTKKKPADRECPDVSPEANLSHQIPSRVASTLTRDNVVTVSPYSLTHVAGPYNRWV

Target: TET1 (ten-eleven translocation 1), endogenous in oligodendrocyte lineage cells (mouse (endogenous in primary mouse OPCs and OLs)) (UniProt Q3URK3)
Experiment: affinity purification with mass spectrometry; IP of endogenous TET1 (rabbit anti-TET1, Catch and Release kit) from RIPA lysate of mouse mature OLs; normal IgG as control; SDS-PAGE, in-gel trypsin digestion, LC-MS/MS; done twice

- binding: binds
B1: Nup160 (protein, UniProt Q9Z0W3 1-1402)
chain: MAAAGSLERSFVELSGAERERPRHFREFTVCDIGTASAAFGTVKYSESAGGFYYVESGKLFSITRNRFIHWKTSGDTLELVEESLDLNLLNNAVRLKFQNYNILPGGVHVSETQNHVIILILTNQTVHRLILPHPSRMYRSELVTESQMQSIFTDIGKVDFRDPCNSQLIPSVPGLSPGSTTSAAWLSSDGEALFALPSASGGIFVLKLPPYDVPGIASVVELKQSSVMQRLLTGWMPTAIRGDHGPSDRALSLAVHCVEHDAFIFALCQDHKLRMWSYKDQMCLMVADMLEYVPVNKDLRLTAGTGHKLRLAYSPSMGLYLGIYMHAPKRGQFCVFQLVSTENNRYSLDHISSLFTSQETLVDFALTSTDIWALWHDAENQTIVKYINFEHNVAGQWNPVFMQPLPEEEIVIRDDQDPREMYLRSLFTPGHFINAALCKALQIFCRGTERNLDLSWNELKKEITLAVENELQGSVTEYEFSQDEFRTLQQEFWCKFYACVLQYQEALSHPLALHLNPVTNMVCLLKKGYLSFLVPSSLVDHLYLLPDEHLLTEDETTISDDADVARDVLCLIKCLRMIGESVTMDMAVLMETSCYNLQSPEKAAEHILEDLITIDVENVMEDICSKLQEIRNPVHAIGLLIREMDYETEVEMEKGFDPAQPLNVRMNLSQLYGSSTAGYIVCRGVYKIASTRFLICRDLLILQQLLTRLGDAVILGAGQLFQAQQDLLHRTAPLLLSYYLIKWASQCLATDVPVDTLESNLQHLSVLELTDSGALMANKLVSSPQTIMELFFQEVARKQIISHLFSQPKAPLSQTGLNWPEMITAVTGYLLQLLWPSNPGCLFLECLMGNCQYVQLQDYIQLLHPWCQVNVGSCRFMLGRCYLVTGEVQKALECFCQAASEVGKEEFLDRLIRSEDGEIVSTPKLQYYDKVLRLLDVVGLPELVIQLATSAITEAGDDWKSQATLRTCIFKHHLDLGHNSQAYEALTQIPDSSRQLDCLRQLVVVLCERSQLQDLVEFPYVNLHNEVVGIIESRARAVDLMTHNYYELLYAFHIYRHNYRKAGTVMFEYGMRLGREVRTLRGLEKQGNCYLAAINCLRLIRPEYAWIVQPASGAVSDRPGASPKRNHDGECTAAPTNRQIEILELEDLEKEYSLARIRLTLARHDPSVIAIAGSSSAKEMSALLVQAGLFDTAISLCQTFTLPLTPVFEGLAFKCIKLQFGGEAAQGEAWSWLATNQLSSVITTKESSATDEAWRLLSTYLERYKVQNNLYHHCVINKLLSHGVPLPNWLINSYKKVDAAELLRLYLNYDLLEEAVDLVSEYVDAVLGKGHQYFGIEFPLSATAPMVWLPYSSIDQLLQALGENSANSHNIILSQKILDKLEDYQQKVDKATRDLLYRRDL

No constants are given. Whether binding was seen depends on the method and setting. Binding seen in cells or lysates may run through a third protein. A yes stands for co-enrichment or nearness to the bait. Other partners may have been found.
